# Results of single-concentration screens

The values are deposited in ChEMBL (CHEMBL3988442, “University of Dundee, Small-Polar-MMV Screening Library” (2021)).

Mtb cholesterol medium: 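Phenotypic screen: M. tuberculosis growth, cholesterol and DPPC medium, 4 days; the read-out is not stated. Concentration: 50 µM. Higher reads as more growth inhibition (inferred: compounds with an IC50 in retests scored well above the rest). About 69,000 compounds were tested under these conditions; 0.54% (about 370) showed 50% or more at least once.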
Mtb glucose medium: 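Phenotypic screen: M. tuberculosis growth, glucose 7H9 medium, 3 days; the read-out is not stated. Concentration: 50 µM. Higher reads as more growth inhibition (inferred: compounds with an IC50 in retests scored well above the rest). Of about 69,000 compounds tested this way, about 760 (1.1%) reached 50% or more in at least one test.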

Results are given as percent effect.
How 0% and 100% were set is not recorded. Most values in the screen are low, and negative values occur.
Compounds were drawn at random from those tested, without regard to their results.
Two or more numbers in one place are separate tests of the same structure; such repeats can differ widely.

| # | structure | Mtb cholesterol medium | Mtb glucose medium |
|---|---|---|---|
| 1 | `NCC1(c2cccc(F)c2)CCOCC1` | -9.559% | -23.94% |
| 2 | `CCOCCCn1c(NC(=O)c2cc(C)on2)nc2ccccc21` | -0.3564% | 17.45% |
| 3 | `CCN1CC(C(=O)N2CCC(Oc3ccccc3C)CC2)CC1=O` (stereo unspecified) | -13.42% | -20.77% |
| 4 | `CN1Cc2ccccc2CC2(CCN(c3ncccn3)CC2)C1=O` | 8.423% | 14.51% & 15.96% |
| 5 | `Cc1nc(C)n(CC2CCCN2CCCc2nc3ccccc3o2)n1` (stereo unspecified) | 16.78% | -2.383% & 15.24% |
| 6 | `COc1cccc(CN2CCN(Cc3ccc4nonc4c3)CC2=O)c1` | -1.598% & -6.5% | -0.616% |
| 7 | `CCC(=O)N1CCCC1c1nc(N(C)C)ncc1-c1ccc(Cl)cc1` (stereo unspecified) | 4.899% | 15.97% |
| 8 | `CC(=O)c1c(F)cccc1N1CCC(NS(=O)(=O)c2ccccc2)CC1` | -1.001% & -0.917% | 5.506% |
| 9 | `Cc1nnc(NC(=O)N2CCN(Cc3ccc(F)cc3)C(=O)C2)s1` | 12.33% | -14.94% |
| 10 | `Cc1cc(C)n(CC2CCCN2C(=O)CCc2nccs2)n1` (stereo unspecified) | 3.122% | 18.82% |
| 11 | `O=C(CNc1cc2c(cc1Cl)OCCO2)NCC(F)(F)F` | -33.24% | -12.06% |
| 12 | `CCN(C)c1ccc(C(=O)NCCCc2ccccn2)cn1` | -0.1606% | 5.883% |
| 13 | `CN1CC2(CCCN(Cc3nnc(-c4ccccc4)o3)CC2)OC1=O` (stereo unspecified) | 0.5932% | -6.717% |
| 14 | `COc1cccc(CN(C)Cc2c(C)noc2C)c1OC` | -0.04908% | 7.564% |
| 15 | `Cc1ccsc1C(=O)N1CCC(Nc2cccnc2)CC1` | 1.679% | -9.975% |
| 16 | `[H][C@]12CC[C@]([H])(CN(Cc3cccc(-n4cccn4)c3)C1)N(CCC)C2` | 21.06% | 37.74% |
| 17 | `CCn1ncnc1C1CC(=O)NCc2nc(N3CCOCC3)sc21` (stereo unspecified) | -1.198% | 17.32% |
| 18 | `Cc1cc(C(=O)NC2CCc3c(ccc(=O)n3CC(C)C)C2)no1` (stereo unspecified) | -0.01339% | -4.496% |
| 19 | `Cc1cccc(CN2C(=O)CCC23CCNCC3)n1.O=C(O)C(F)(F)F.O=C(O)C(F)(F)F` | -7.764% & -10.32% | -6.215% |
| 20 | `Cc1nc2c(c(NC(C)C)n1)CCN(Cc1cccnc1)CC2.O=C(O)C(F)(F)F.O=C(O)C(F)(F)F` | -4.954% | -8.097% & -8.818% |
| 21 | `CCc1cc(C(=O)N2CCC(c3cc4ncccc4cn3)CC2)no1` | -32.83% | -34.91% |
| 22 | `Cc1ncc(CN(C)CC(O)c2ccc(Br)cc2)s1` (stereo unspecified) | 10.4% | 19.29% |
| 23 | `NC(=O)CC1CCN(S(=O)(=O)c2cnn(-c3ccccc3)c2)CC1` | -10.59% | 1.233% |
| 24 | `COc1cccc(Cl)c1-c1cc(CN)ccc1F` | 1.142% & -10.16% | 4.054% & 7.124% |
| 25 | `Cc1nnc(CN(C)CCc2nc(-c3cccc(Cl)c3)no2)n1C` | -16.43% | -19.99% & 9.305% |
| 26 | `Cc1nc(CN2CCN(C(=O)c3ccnc(N(C)C)c3)CC2)cs1` | -6.803% | -16.2% |
| 27 | `OC(CNC1CCOCC1)c1ccc(Cl)c(F)c1` (stereo unspecified) | 18.23% | 18.74% |
| 28 | `O=C(c1ccc2c(c1)OCO2)N1CCCC(n2cccn2)C1` (stereo unspecified) | -10.83% | 0.04677% |
| 29 | `Cc1ccc(-c2noc(CN3CCCC(Cn4cncn4)C3)n2)cc1` (stereo unspecified) | 17.39% | 6.307% |
| 30 | `COc1no[n+]([O-])c1-c1ccccc1` | 8.099% | -21.47% & -4.335% |
| 31 | `O=C(O)CCc1nc2nccc(C(F)(F)F)n2n1` | -20.87% | -12.06% |
| 32 | `CN(CCNS(C)(=O)=O)C(=O)c1ccc(Cl)c(Cl)c1` | -2.945% | -10.59% |
| 33 | `CC(C(=O)Nc1cccc(Cl)c1)N1CCN(Cc2ncc[nH]2)CC1` (stereo unspecified) | -0.5967% | 10.15% |
| 34 | `O=C(NCC1CC2(CO1)CN(Cc1cccs1)C2)C1CCC1.O=C(O)C(F)(F)F` (stereo unspecified) | 10.73% | -42.51% |
| 35 | `CCc1nc(C2CCCN2CCc2ccccn2)no1` (stereo unspecified) | -9.792% | -24.7% |
| 36 | `O=C(O)C(F)(F)F.[H][C@]12CCCC(OCc3cccnc3)[C@@]1([H])CN(C(=O)c1ccoc1C)C2` (stereo partly specified) | -0.4318% | -2.331% & -2.727% |
| 37 | `CCN1CC(COC(=O)c2ccccc2Cl)CC1=O` (stereo unspecified) | -17.04% | 1.782% |
| 38 | `Cl.Cn1nc(C2CCCN(Cc3ccc(F)c(F)c3)C2)c2nccnc21` (stereo unspecified) | -9.355% | 24.28% |
| 39 | `Cc1cccc(C)c1CNC1(CCO)CCOCC1` | 10.01% | 40.87% |
| 40 | `N#Cc1ccc(N2CCC3(CCCN(c4ccccn4)C3)C2)nc1.O=C(O)C(F)(F)F` (stereo unspecified) | 0.7984% | 22.37% |
| 41 | `CCc1nnc(CNC2CCCN(Cc3noc(C4CC4)n3)C2)o1` (stereo unspecified) | -17.26% | -3.66% |
| 42 | `O=S(=O)(NC1=NCN(CCc2cccs2)CN1)c1ccc(Br)cc1` | -11.08% | -11.84% |
| 43 | `CC(C)(C)NC(=O)N1CCC(NC(=O)Cc2cccnc2)CC1` | -11.03% | 5.02% & 2.536% |
| 44 | `CCN(C(=O)CN1CCN(CC(C)O)CC1)C1=CCCCC1` (stereo unspecified) | 8.308% | -0.1808% |
| 45 | `[H][C@@]12CN(C3CCOCC3)C[C@]1([H])N(CCc1ccc(OC)cc1)C(=O)O2` | -14.47% | -3.653% |
| 46 | `N#Cc1c(N)nc2c(c1-c1c[nH]nc1C1CCCCC1)COCC2` | -10.49% | -15.18% |
| 47 | `CN1CCN(C(=O)C2CN(Cc3cc4ccccc4o3)CCN2)CC1` (stereo unspecified) | -3.322% | 24.99% |
| 48 | `COc1ccccc1C(C)NC(=O)N1CCN(Cc2ccc(Br)s2)CC1` (stereo unspecified) | -11.31% | 30.24% |
| 49 | `Cc1nc(C2CCCN2Cc2nc(C3CC3)no2)no1` (stereo unspecified) | 13.81% | 13.4% |
| 50 | `COc1ccc(C[C@H]2CN(C(=O)c3cnoc3)CC[C@@H]2OC)cc1` | 3.206% | 28.89% |
| 51 | `CNC(=O)Cc1noc(Cc2cccc(Cl)c2)n1` | 0.7746% | -7.6% |
| 52 | `CCCn1cc(C(=O)NC2CCN(CC(=O)NC3CC3)CC2)c(C)n1` | -9.556% & 9.128% | 4.2% |
| 53 | `O=C(c1ccc(S(=O)(=O)NCCc2ccncc2)cc1)N1CCCC1` | -0.135% | 6.088% & -2.793% |
| 54 | `O=C(NCCCn1ccnc1)NCC(c1ccco1)N1CCCC1` (stereo unspecified) | -11.1% | -14.48% |
| 55 | `COCC1CC2(CCN(Cc3ccccn3)CC2)CN1C(C)C` (stereo unspecified) | -13.1% | -13.47% |
| 56 | `Cc1ccc(-c2noc(C3CCN3C(=O)c3ccn(C)n3)n2)s1` (stereo unspecified) | 4.64% & 9.305% | 0.2366% |
| 57 | `CCCC(NC(=O)c1occc1C)c1nnn[nH]1` (stereo unspecified) | 7.122% & -5.633% | -6.004% |
| 58 | `CCC(NC(=O)c1cnc(N(C)C)nc1C)c1ccncc1` (stereo unspecified) | -4.35% | -19.34% & 5.269% |
| 59 | `[H][C@]12CC[C@]([H])(CN(C(=O)Cc3c(F)cccc3Cl)C1)N(CCOC)C2=O` | -7.692% | -14.58% |
| 60 | `Cn1c(=O)[nH]c2cc(C(=O)OCCCn3ccccc3=O)ccc21` | -16.7% | -20.61% |
| 61 | `CN1CCN(C2CCN(Cc3noc(C(C)(C)C)n3)CC2)C1=O` | -20.37% | -31.98% |
| 62 | `CCc1[nH]c2ccc(CNC(=O)Cc3c(C)nc(N)nc3C)cc2c1C` | 10.67% & 8.817% | 25.98% |
| 63 | `O=C1CC2(CCCC2)CC(=O)N1Cc1nc2ncccn2n1` | -18.4% | 3.291% |
| 64 | `CS(=O)(=O)N1CCOCC2(CCN(C(=O)c3cnccn3)CC2)C1` | -6.89% | -36.54% |
| 65 | `Cc1nc(C)c(C(=O)N2CCc3c(Cl)cccc32)o1` | -0.1886% | 10.53% & 0.9916% |
| 66 | `CNS(=O)(=O)c1ccc(C(=O)NCc2ccnc(OC)c2)cc1` | -3.965% | 0.9444% |
| 67 | `O=C(NCc1ccccc1CN1CCOCC1)c1ccc(Br)cc1F` | -9.189% | -9.105% & 15.5% |
| 68 | `O=C(c1ccc(O)c(Cl)c1)N1CCN(c2nccs2)CC1` | -22.53% | -7.199% |
| 69 | `CN(C)S(=O)(=O)N1CC[C@]2(C[C@@H](OCc3ccccn3)CO2)C1.O=C(O)C(F)(F)F` | 2.56% | 8.614% & -2.776% |
| 70 | `CCOc1ccc(CNCCCn2ccnc2)cc1Cl.Cl.Cl` | -6.249% & -0.02801% | 5.435% |
| 71 | `COCC(=O)N(C)Cc1ccc(F)c(F)c1` | 25.48% | 13.37% |
| 72 | `CCn1cc(CN(C)S(=O)(=O)c2cnn(CC)c2C)c(C)n1` | -31.54% | 12.27% |
| 73 | `Cc1nn(C)c(C)c1-c1nc2cc(S(=O)(=O)N3CCCC3)ccc2n1C` | 17.92% | 26.47% |
| 74 | `Cc1c(C(C)NC(=O)C2CCCCC2)cnn1C` (stereo unspecified) | -15.42% | -11.27% |
| 75 | `[H][C@@]12C[C@H](NC(=O)c3nc4ccccc4[nH]3)CN1CCN(C)C2` | -0.3641% | 25.51% |
| 76 | `COc1ccccc1OC1CCN(Cc2cnc(N(C)C)nc2)CC1` | -12.26% | -18.49% |
| 77 | `c1ccc(Cn2cccn2)c(CN2CCCCC2CCn2ccnc2)c1` (stereo unspecified) | 5.794% | 20.01% |

8 of the entries, repeated:

{"structure": "O=C(NCc1ccccc1CN1CCOCC1)c1ccc(Br)cc1F", "Mtb cholesterol medium": -9.189, "Mtb glucose medium": "-9.105 & 15.5"}
{"structure": "Cc1ncc(CN(C)CC(O)c2ccc(Br)cc2)s1", "stereo": "stereo unspecified", "Mtb cholesterol medium": 10.4, "Mtb glucose medium": 19.29}
{"structure": "NC(=O)CC1CCN(S(=O)(=O)c2cnn(-c3ccccc3)c2)CC1", "Mtb cholesterol medium": -10.59, "Mtb glucose medium": 1.233}
{"structure": "COc1ccccc1OC1CCN(Cc2cnc(N(C)C)nc2)CC1", "Mtb cholesterol medium": -12.26, "Mtb glucose medium": -18.49}
{"structure": "CN(CCNS(C)(=O)=O)C(=O)c1ccc(Cl)c(Cl)c1", "Mtb cholesterol medium": -2.945, "Mtb glucose medium": -10.59}
{"structure": "CS(=O)(=O)N1CCOCC2(CCN(C(=O)c3cnccn3)CC2)C1", "Mtb cholesterol medium": -6.89, "Mtb glucose medium": -36.54}
{"structure": "CCn1ncnc1C1CC(=O)NCc2nc(N3CCOCC3)sc21", "stereo": "stereo unspecified", "Mtb cholesterol medium": -1.198, "Mtb glucose medium": 17.32}
{"structure": "Cc1nnc(CN(C)CCc2nc(-c3cccc(Cl)c3)no2)n1C", "Mtb cholesterol medium": -16.43, "Mtb glucose medium": "-19.99 & 9.305"}